Among the data in the supplement of paper PMC12819154, “High-throughput peptide-centric local stability assay extends protein–ligand identification to membrane proteins, tissues and bacteria” (Nature Structural & Molecular Biology, 2025) are log2 fold change values, retold here.

The chains behind the UniProt entries cited, without tags or fusion partners. Where a name states a change or a piece, a line headed by the entry shows the natural chain unless it says otherwise.
UniProt Q14168: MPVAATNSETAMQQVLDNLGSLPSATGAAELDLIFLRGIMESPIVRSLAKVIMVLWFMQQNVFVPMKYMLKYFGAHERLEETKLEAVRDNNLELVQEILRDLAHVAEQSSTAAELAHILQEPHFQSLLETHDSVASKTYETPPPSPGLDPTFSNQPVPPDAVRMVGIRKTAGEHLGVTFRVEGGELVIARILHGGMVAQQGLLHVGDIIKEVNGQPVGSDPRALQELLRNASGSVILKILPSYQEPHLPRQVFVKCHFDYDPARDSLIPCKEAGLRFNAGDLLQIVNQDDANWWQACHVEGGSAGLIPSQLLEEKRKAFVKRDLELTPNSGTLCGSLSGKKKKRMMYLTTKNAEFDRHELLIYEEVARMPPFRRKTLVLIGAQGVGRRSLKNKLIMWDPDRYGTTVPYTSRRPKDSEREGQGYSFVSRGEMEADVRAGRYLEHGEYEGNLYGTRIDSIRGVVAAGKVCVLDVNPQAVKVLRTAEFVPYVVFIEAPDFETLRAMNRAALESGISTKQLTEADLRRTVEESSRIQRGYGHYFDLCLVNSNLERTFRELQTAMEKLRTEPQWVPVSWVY
UniProt Q14254: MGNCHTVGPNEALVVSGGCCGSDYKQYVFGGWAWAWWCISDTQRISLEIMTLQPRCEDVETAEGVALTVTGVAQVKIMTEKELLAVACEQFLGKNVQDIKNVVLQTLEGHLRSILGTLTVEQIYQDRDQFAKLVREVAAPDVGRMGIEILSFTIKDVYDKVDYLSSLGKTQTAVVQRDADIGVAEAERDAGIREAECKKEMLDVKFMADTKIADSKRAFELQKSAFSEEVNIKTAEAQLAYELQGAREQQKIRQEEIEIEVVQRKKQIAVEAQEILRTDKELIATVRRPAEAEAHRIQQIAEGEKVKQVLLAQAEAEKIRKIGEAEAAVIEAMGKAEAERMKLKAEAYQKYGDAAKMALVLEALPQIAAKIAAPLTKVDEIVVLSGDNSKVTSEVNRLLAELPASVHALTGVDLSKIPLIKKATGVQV
UniProt Q13426: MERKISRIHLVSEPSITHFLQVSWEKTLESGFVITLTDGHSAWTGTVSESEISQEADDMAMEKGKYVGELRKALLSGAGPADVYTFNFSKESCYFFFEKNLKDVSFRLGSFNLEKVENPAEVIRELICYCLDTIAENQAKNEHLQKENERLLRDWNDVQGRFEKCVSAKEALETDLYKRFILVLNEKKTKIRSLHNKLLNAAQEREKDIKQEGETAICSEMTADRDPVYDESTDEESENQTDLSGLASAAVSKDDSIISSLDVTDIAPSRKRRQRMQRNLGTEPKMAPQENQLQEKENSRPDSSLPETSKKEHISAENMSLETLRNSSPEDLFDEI
UniProt Q13616, whole entry: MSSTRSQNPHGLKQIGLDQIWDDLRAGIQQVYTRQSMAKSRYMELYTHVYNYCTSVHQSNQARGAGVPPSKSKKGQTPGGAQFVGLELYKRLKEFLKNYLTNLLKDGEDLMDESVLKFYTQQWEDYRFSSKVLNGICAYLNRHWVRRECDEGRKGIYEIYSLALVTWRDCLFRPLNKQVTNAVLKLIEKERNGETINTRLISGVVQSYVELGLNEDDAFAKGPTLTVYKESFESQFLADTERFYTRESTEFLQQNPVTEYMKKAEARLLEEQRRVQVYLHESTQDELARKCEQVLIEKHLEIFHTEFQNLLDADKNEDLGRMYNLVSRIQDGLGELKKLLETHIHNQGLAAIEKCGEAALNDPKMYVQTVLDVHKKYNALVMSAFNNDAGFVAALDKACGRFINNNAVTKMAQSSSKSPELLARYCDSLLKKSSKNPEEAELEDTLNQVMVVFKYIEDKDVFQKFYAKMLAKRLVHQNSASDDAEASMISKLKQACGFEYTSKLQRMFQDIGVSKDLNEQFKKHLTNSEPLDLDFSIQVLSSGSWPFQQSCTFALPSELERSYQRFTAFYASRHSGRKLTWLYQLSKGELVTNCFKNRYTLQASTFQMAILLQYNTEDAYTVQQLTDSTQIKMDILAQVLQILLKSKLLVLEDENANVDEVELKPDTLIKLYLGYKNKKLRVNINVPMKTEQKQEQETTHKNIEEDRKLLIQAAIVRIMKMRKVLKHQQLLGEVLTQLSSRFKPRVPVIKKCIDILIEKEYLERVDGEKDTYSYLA
UniProt Q14676: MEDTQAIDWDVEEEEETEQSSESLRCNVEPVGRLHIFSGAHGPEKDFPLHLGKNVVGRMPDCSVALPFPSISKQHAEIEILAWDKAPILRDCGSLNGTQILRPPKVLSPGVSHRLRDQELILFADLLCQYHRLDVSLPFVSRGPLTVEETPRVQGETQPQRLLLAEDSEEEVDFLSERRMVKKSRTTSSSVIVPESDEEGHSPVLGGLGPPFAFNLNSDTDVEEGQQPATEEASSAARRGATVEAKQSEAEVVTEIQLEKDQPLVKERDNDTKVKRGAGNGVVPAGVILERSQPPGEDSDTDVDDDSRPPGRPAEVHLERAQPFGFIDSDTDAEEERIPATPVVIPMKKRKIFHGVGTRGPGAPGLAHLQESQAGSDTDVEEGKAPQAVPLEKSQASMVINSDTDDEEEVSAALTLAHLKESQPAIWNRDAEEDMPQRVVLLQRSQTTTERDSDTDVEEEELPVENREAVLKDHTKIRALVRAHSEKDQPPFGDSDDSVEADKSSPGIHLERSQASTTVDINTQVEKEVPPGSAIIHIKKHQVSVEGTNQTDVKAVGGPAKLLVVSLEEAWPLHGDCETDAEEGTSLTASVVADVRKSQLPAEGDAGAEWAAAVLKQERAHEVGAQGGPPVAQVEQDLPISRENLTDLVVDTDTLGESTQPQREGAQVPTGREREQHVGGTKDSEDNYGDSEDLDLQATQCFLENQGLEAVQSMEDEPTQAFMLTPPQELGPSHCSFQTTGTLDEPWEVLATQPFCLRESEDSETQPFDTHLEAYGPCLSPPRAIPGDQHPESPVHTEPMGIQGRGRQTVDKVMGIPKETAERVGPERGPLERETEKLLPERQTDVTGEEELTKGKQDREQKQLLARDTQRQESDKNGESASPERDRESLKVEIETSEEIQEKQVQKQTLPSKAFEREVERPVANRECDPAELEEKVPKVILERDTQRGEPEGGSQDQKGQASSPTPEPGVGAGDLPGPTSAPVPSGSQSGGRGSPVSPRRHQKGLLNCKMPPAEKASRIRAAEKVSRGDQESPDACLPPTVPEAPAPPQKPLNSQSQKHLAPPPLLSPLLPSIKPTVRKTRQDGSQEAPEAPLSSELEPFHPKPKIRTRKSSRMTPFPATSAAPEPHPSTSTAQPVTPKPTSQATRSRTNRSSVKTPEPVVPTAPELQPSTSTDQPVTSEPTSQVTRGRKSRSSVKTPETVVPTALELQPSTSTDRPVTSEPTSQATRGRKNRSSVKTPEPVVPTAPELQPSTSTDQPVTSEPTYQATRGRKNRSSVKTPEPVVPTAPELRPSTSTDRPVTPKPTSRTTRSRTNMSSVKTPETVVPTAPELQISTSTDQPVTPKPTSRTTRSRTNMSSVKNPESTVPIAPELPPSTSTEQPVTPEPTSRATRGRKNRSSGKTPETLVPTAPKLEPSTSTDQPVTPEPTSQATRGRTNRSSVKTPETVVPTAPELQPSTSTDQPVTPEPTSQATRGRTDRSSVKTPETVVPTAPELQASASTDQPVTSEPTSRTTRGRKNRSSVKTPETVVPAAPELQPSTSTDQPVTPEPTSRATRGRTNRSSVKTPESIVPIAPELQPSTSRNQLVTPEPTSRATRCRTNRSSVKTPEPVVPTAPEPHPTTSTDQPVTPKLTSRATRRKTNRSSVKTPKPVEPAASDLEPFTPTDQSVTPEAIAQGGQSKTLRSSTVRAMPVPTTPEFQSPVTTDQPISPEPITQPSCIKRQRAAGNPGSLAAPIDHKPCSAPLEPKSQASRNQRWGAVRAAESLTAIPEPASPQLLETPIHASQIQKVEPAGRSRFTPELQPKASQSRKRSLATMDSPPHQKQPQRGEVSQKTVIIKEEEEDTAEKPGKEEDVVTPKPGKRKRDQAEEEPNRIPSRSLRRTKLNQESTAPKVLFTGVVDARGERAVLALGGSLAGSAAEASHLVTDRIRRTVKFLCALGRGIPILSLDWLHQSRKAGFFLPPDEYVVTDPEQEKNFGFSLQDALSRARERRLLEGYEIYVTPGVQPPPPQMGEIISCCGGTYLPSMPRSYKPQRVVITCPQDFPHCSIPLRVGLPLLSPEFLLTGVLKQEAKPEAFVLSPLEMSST
UniProt Q13148, whole entry: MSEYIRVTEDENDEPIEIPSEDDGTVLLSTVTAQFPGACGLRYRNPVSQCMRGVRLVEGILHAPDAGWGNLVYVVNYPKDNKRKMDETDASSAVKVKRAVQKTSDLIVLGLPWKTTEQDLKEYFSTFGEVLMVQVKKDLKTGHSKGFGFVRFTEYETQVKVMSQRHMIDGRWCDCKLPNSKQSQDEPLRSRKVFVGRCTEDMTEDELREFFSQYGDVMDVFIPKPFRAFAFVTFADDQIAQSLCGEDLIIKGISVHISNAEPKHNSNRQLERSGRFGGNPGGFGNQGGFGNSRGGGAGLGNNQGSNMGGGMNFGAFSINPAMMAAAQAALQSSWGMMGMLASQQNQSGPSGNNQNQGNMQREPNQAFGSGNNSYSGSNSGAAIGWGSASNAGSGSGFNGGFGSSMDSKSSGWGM
UniProt Q13825: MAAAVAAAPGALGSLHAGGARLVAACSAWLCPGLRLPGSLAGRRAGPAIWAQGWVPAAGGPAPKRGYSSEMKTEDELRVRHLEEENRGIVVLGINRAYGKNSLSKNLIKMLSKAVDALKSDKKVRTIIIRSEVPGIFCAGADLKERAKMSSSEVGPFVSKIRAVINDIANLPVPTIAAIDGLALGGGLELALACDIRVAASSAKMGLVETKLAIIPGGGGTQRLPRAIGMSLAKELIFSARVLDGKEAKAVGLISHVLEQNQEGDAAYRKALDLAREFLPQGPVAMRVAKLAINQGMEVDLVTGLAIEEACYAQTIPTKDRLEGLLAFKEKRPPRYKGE
UniProt Q13901: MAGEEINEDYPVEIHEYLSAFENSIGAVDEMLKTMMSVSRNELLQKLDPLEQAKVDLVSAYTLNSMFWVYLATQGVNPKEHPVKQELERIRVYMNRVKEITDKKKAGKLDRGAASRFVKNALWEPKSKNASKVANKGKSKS
UniProt Q14872: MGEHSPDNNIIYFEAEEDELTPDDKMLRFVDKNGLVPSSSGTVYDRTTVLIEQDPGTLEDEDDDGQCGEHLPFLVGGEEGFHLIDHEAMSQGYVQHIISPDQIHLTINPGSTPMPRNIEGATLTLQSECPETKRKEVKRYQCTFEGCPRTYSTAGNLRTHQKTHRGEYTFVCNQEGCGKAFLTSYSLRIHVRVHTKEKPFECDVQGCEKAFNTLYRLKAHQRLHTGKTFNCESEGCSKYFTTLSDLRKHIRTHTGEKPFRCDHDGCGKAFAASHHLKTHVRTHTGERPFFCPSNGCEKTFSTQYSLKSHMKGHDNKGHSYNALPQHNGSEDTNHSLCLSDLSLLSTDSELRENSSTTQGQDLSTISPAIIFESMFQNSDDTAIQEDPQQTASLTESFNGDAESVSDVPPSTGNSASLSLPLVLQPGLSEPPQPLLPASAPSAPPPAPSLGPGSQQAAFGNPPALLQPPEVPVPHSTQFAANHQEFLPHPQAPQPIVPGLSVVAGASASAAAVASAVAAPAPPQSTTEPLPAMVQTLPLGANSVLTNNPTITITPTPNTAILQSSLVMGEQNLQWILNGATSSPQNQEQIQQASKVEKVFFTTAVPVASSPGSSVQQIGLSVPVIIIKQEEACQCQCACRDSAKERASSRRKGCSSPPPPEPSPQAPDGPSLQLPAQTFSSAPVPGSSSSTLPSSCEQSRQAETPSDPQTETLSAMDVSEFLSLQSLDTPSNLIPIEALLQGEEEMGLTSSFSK
UniProt Q13617, whole entry: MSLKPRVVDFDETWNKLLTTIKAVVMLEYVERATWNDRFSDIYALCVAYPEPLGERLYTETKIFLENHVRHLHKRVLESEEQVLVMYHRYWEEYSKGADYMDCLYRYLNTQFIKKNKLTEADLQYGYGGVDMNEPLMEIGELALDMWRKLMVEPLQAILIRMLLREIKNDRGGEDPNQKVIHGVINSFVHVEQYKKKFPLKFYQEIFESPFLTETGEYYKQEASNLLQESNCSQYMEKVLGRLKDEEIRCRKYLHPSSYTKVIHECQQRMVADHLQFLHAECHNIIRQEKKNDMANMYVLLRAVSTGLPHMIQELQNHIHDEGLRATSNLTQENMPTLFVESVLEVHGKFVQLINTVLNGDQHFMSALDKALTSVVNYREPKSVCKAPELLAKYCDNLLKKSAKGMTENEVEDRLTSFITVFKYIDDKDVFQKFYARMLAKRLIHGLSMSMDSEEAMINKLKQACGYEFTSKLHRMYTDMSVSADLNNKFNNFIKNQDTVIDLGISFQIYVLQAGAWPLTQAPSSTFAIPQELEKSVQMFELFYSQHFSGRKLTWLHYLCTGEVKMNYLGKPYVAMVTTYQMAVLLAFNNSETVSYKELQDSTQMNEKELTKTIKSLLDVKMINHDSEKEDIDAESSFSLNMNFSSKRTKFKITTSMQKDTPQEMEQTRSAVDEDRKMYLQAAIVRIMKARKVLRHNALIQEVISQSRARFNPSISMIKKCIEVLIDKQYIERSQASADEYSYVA

Some of the results follow. Most entries show no effect beyond the scatter of the controls.

Compound in the assay: Cc1nc(Nc2ncc(C(=O)Nc3c(C)cccc3Cl)s2)cc(N2CCN(CCO)CC2)n1 [dasatinib]
Put plainly: log2 fold change of tryptic peptide abundance, ligand vs vehicle (limited proteolysis) (log2 ratio); higher = more trypsin-susceptible (destabilized). The note with it: ligand concentration: 5 uM; sample: K562 cleared lysate.
On to “ORC1 (peptide sequence: LLLVEPSRNDLLLR, peptide start residue: 831) (UniProt Q13415)”, for which the log2 fold change is -0.263.

As for “STX5 (peptide sequence: DVAIDMMDSR, peptide start residue: 242) (UniProt Q13190)”, the log2 fold change is -0.0819.

Regarding “HES1 (peptide sequence: TLILDALKK, peptide start residue: 59) (UniProt Q14469)”, the log2 fold change was -0.206.

Turning to “UniProt Q14449 (peptide sequence: GVLPCKLK, peptide start residue: 579)”, the log2 fold change worked out at 0.142.

On to “MPP2 (peptide sequence: TLVLIGAQGVGRR, peptide start residue: 340) (UniProt Q14168)”, for which the log2 fold change is -0.291.

With “FLOT2 (peptide sequence: QVLLAQAEAEKIR, peptide start residue: 308) (UniProt Q14254)”, the log2 fold change worked out at 0.301.

Consider “KCNAB2 (peptide sequence: QTGSPGMIYSTR, peptide start residue: 17) (UniProt Q13303)”, for which the log2 fold change was 0.183.

On to “MTA1 (peptide sequence: DITLFHAMDTLHK, peptide start residue: 248) (UniProt Q13330)”, for which the log2 fold change was -0.778.

Regarding “SLMAP (peptide sequence: DVQKEYEK, peptide start residue: 749) (UniProt Q14BN4)”, the log2 fold change was determined as 0.728.

As for “XRCC4 (peptide sequence: FILVLNEKK, peptide start residue: 180) (UniProt Q13426)”, the log2 fold change was 0.224.

Take “CUL1 (peptide sequence: FINNNAVTK, peptide start residue: 402) (UniProt Q13616)”: the log2 fold change is -0.428.

“PEX6 (peptide sequence: LVFVGANEDR, peptide start residue: 867) (UniProt Q13608)”: the log2 fold change is -0.2.

For “EIF2B5 (peptide sequence: VSNLHMYSAVCADVIRR, peptide start residue: 300) (UniProt Q13144)”, the log2 fold change came to 0.214.

On to “UniProt Q14240 (peptide sequence: DFTVSALHGDMDQKER, peptide start residue: 297)”, for which the log2 fold change was -0.168.

For “DHX34 (peptide sequence: EHQVVVVAGDTGCGK, peptide start residue: 177) (UniProt Q14147)”, the log2 fold change stood at 0.618.

Regarding “MDC1 (peptide sequence: EGAQVPTGR, peptide start residue: 664) (UniProt Q14676)”, the log2 fold change is 0.16.

For the target “SNAPC2 (peptide sequence: VFLQQLK, peptide start residue: 64) (UniProt Q13487)”, the log2 fold change is -0.06.

For the target “TARDBP (peptide sequence: QSQDEPLR, peptide start residue: 182) (UniProt Q13148)”, the log2 fold change is -0.138.

As to “TCOF1 (peptide sequence: GSLGSQGAKDEPEEELQK, peptide start residue: 1406) (UniProt Q13428)”, the log2 fold change is -0.152.

Consider “REST (peptide sequence: MDTDQNTR, peptide start residue: 949) (UniProt Q13127)”, for which the log2 fold change is -0.338.

On to “DYNC1I2 (peptide sequence: QQILHSEEFLSFFDHSTR, peptide start residue: 214) (UniProt Q13409)”, for which the log2 fold change came to 0.123.

As to “AUH (peptide sequence: EFLPQGPVAMR, peptide start residue: 277) (UniProt Q13825)”, the log2 fold change was -0.322.

Consider “BOP1 (peptide sequence: KLMPNCK, peptide start residue: 615) (UniProt Q14137)”, for which the log2 fold change was 0.504.

On to “POLA2 (peptide sequence: SVILEGDREHSSGAQIPVDLSELK, peptide start residue: 269) (UniProt Q14181)”, for which the log2 fold change came to 0.292.

As for “PRDX4 (peptide sequence: HGEVCPAGWKPGSETIIPDPAGK, peptide start residue: 241) (UniProt Q13162)”, the log2 fold change was -0.124.

For the target “ARHGEF7 (peptide sequence: NLSAQCQEVR, peptide start residue: 443) (UniProt Q14155)”, the log2 fold change was -0.145.

“C1D (peptide sequence: LDPLEQAK, peptide start residue: 47) (UniProt Q13901)”: the log2 fold change is -0.0783.

In the case of “PWP1 (peptide sequence: ERLVLGSAR, peptide start residue: 474) (UniProt Q13610)”, the log2 fold change stood at 0.557.

“COG2 (peptide sequence: VQLEELR, peptide start residue: 40) (UniProt Q14746)”: the log2 fold change amounted to 0.204.

As for “EIF3A (peptide sequence: RGDDSRPGPWR, peptide start residue: 1160) (UniProt Q14152)”, the log2 fold change was found to be 0.441.

For “PABPC4 (peptide sequence: FSPAGPVLSIR, peptide start residue: 31) (UniProt Q13310)”, the log2 fold change came to 0.187.

For the target “MTF1 (peptide sequence: TFNCESEGCSK, peptide start residue: 228) (UniProt Q14872)”, the log2 fold change was -0.231.

As to “CUL2 (peptide sequence: AVVMLEYVER, peptide start residue: 23) (UniProt Q13617)”, the log2 fold change was -0.341.

As for “IKZF1 (peptide sequence: SGLIYLTNHIAPHAR, peptide start residue: 409) (UniProt Q13422)”, the log2 fold change was 0.108.

For the target “PDCD11 (peptide sequence: YLDYEKQHGTEK, peptide start residue: 1838) (UniProt Q14690)”, the log2 fold change is 0.525.

“VEZF1 (peptide sequence: TCMSEETSNQK, peptide start residue: 326) (UniProt Q14119)”: the log2 fold change came to 0.718.

As to “BECN1 (peptide sequence: YAQTQLDK, peptide start residue: 256) (UniProt Q14457)”, the log2 fold change was determined as 0.553.
